Laboratory results reported in ChEMBL document CHEMBL4303122, “Identification of potential treatments for COVID-19 through artificial intelligence-enabled phenomic analysis of human cells infected with SARS-CoV-2” (2020).
Whole data set: some 1,600 compounds, median “Hit score” near 0.13, cut for the highest 2% near 0.46. This is one part of the list.

What follows are compounds tested on SARS-CoV-2 (assay: Antiviral activity against SARS-CoV-2 (USA-WA1/2020 strain) measured by imaging in HRCE cells at MOI 0.4 after 96 hrs (reported as hit score from 0-1 for on-disease vs off-disease activity: scores >0.6 considered hits)).
Format: functional, Homo sapiens

SMILES | Hit score
Cc1cn([C@H]2C=C[C@@H](CO)O2)c(=O)[nH]c1=O [STAVUDINE] | 0.0534
CC(=O)NS(=O)(=O)c1ccc(N)cc1 [SULFACETAMIDE] | 0.2126
NS(=O)(=O)c1cc2c(cc1C(F)(F)F)NCNS2(=O)=O [HYDROFLUMETHIAZIDE] | 0.1879
N[C@@H](CCN[C@@H](CCN1CC[C@H]1C(=O)O)C(=O)O)C(=O)O | 0.1041
N[C@@H](Cc1c[nH]c2ccccc12)C(=O)O [TRYPTOPHAN] | 0.2037
CN1C[C@H](CNC(=O)OCc2ccccc2)C[C@@H]2c3cccc4c3c(cn4C)C[C@H]21 [METERGOLINE] | 0.1289
CC(O)Cn1cnc2c1c(=O)n(C)c(=O)n2C (configuration not stated) [PROXYPHYLLINE] | 0.05419
CS(=O)(=O)OCCCCOS(C)(=O)=O [BUSULFAN] | 0.105
Cc1c(NC(=O)c2cccnc2)c(=O)n(-c2ccccc2)n1C [NIFENAZONE] | 0.01839
CC[C@@H]1C(=O)OC[C@@H]1Cc1cncn1C [PILOCARPINE] | 0.1136
CC(C)(CO)c1cc2cc(NC(=O)C3(c4ccc5c(c4)OC(F)(F)O5)CC3)c(F)cc2n1C[C@@H](O)CO [TEZACAFTOR] | 0.1873
COc1cc2nccc(Oc3ccc(NC(=O)NC4CC4)c(Cl)c3)c2cc1C(N)=O [LENVATINIB] | 0.3778
C[C@@H](O[C@H]1OCCN(Cc2nn(P(=O)(O)O)c(=O)[nH]2)[C@H]1c1ccc(F)cc1)c1cc(C(F)(F)F)cc(C(F)(F)F)c1 [FOSAPREPITANT] | 0.000417
CCC(C)(Oc1ccc(C2(c3ccc(OC(C)(CC)C(=O)O)cc3)CCCCC2)cc1)C(=O)O (configuration not stated) [CLINOFIBRATE] | 0.1194
CN(C)/C=N/c1c(I)cc(I)c(CCC(=O)O)c1I [IPODATE] | 0.09433
CCCCC[C@H](O)/C=C/[C@H]1[C@H](O)CC(=O)[C@@H]1C/C=C\CCCC(=O)O [DINOPROSTONE] | 0.143
CN(CCOP(=O)(O)O)C(=N)N [CREATINOLFOSFATE] | 0.1189
CC1(C)S[C@@H]2[C@H](NC(=O)[C@H](NC(=O)N3CCNC3=O)c3ccccc3)C(=O)N2[C@H]1C(=O)O [AZLOCILLIN] | 0.03844
CSc1nc2cc(Cl)c(Oc3cccc(Cl)c3Cl)cc2[nH]1 [TRICLABENDAZOLE] | 0.18
Cc1ccccc1N1CCN(CCc2nnc3n2CCCC3)CC1 [DAPIPRAZOLE] | 0.153
COc1ccc2c(c1)[C@]13CCCC[C@@H]1[C@H](C2)N(C)CC3 [DEXTROMETHORPHAN] | 0.09056
N#C/C(=C1/SCC(c2ccccc2Cl)S1)n1ccnc1 (configuration not stated) [LANOCONAZOLE] | 0.0264
Cc1cccc(C)c1NC(=O)c1cc(S(N)(=O)=O)c(Cl)cc1O [XIPAMIDE] | 0.118
NC(=O)c1cnccn1 [PYRAZINAMIDE] | 0.1788

SMILES | Hit score
Cn1cnc2c(F)c(Nc3ccc(Br)cc3F)c(C(=O)NOCCO)cc21 [BINIMETINIB] | 0.0233
COc1c(-c2ccc3cc(NS(C)(=O)=O)ccc3c2)cc(-n2ccc(=O)[nH]c2=O)cc1C(C)(C)C [DASABUVIR] | 0.3029
Cc1[nH]c(=O)c(C#N)cc1-c1ccc2nccn2c1 [OLPRINONE] | 0.1194
C[C@H](CCC(=O)O)[C@H]1CC[C@H]2[C@@H]3[C@H](O)C[C@@H]4C[C@H](O)CC[C@]4(C)[C@H]3C[C@H](O)[C@]12C [CHOLIC ACID] | 0.1604
O[C@H]1[C@H](O)[C@@H](O)[C@H](O)[C@@H](O)[C@H]1O [INOSITOL] | 0.1465
CCCN(CCC)CCc1cccc2c1CC(=O)N2 [ROPINIROLE] | 0.09207
COc1cccc2c1C(=O)c1c(O)c3c(c(O)c1C2=O)C[C@@](O)(C(=O)CO)C[C@@H]3O[C@H]1C[C@H](N)[C@@H](O)[C@H](C)O1 [EPIRUBICIN] | 0.0714
N[C@@H](CCC(=O)O)C(=O)O [GLUTAMIC ACID] | 0.1738
COc1ccc2cc([C@H](C)C(=O)O)ccc2c1 [NAPROXEN] | 0.1887
O=C(O)c1ccccc1OP(=O)(O)O [FOSFOSAL] | 0.1484
Cc1ncc([N+](=O)[O-])n1CC(C)O (configuration not stated) [SECNIDAZOLE] | 0.1488
C/C=C(/C(=C/C)c1ccc(O)cc1)c1ccc(O)cc1 [DIENESTROL] | 0.02745
O=C1[C@H]2CCCC[C@H]2C(=O)N1CCCCN1CCN(c2nsc3ccccc23)CC1 [PEROSPIRONE] | 0.1455
Cc1cc(S(=O)(=O)[O-])c2c(C)ccc(C(C)C)cc1-2.[Na+] [SODIUM GUALENATE] | 0.2044
CC(=O)NCCCCCC(=O)O [ACEXAMIC ACID] | 0.3113
Oc1ccnc2cc(Cl)ccc12 | 0.1769
O=c1n(CCCN2CCN(c3cccc(Cl)c3)CC2)nc2ccccn12 [TRAZODONE] | 0.2113
CC(=O)OCC(=O)[C@@]12N=C(C)O[C@@H]1C[C@H]1[C@@H]3CCC4=CC(=O)C=C[C@]4(C)[C@H]3[C@@H](O)C[C@@]12C [DEFLAZACORT] | 0.3895
c1coc(CNc2ncnc3[nH]cnc23)c1 [KINETIN] | 0.2348
CCOc1ccc2nc(S(N)(=O)=O)sc2c1 [ETHOXZOLAMIDE] | 0.09234
CCOC(=O)[C@H](CCc1ccccc1)N[C@@H](C)C(=O)N1C(=O)N(C)C[C@H]1C(=O)O | 0.07158
CCOC(=O)c1cnc2c(cnn2CC)c1NN=C(C)C [ETAZOLATE] | 0.1272
O=C(O)c1cc(/N=N/c2ccc(S(=O)(=O)Nc3ccccn3)cc2)ccc1O [SULFASALAZINE] | 0.04911
CC(C)N(CCCCOCC(=O)NS(C)(=O)=O)c1cnc(-c2ccccc2)c(-c2ccccc2)n1 [SELEXIPAG] | 0.0592

SMILES | Hit score
CN/C(=N\CCSCc1nc[nH]c1C)NC#N [CIMETIDINE] | 0.04968
C[C@@H]1C[C@H]2[C@@H]3CCC4=CC(=O)C=C[C@]4(C)[C@@]3(F)[C@@H](O)C[C@]2(C)[C@@]1(O)C(=O)COP(=O)([O-])[O-].[Na+].[Na+] [DEXAMETHASONE SODIUM PHOSPHATE] | 0.2627
Cc1cn(-c2cc(NC(=O)c3ccc(C)c(Nc4nccc(-c5cccnc5)n4)c3)cc(C(F)(F)F)c2)cn1 [NILOTINIB] | 0.4816
Cc1cc(O)cc(C)c1Cl [CHLOROXYLENOL] | 0.1774
CC1=C(C(=O)O)N2C(=O)[C@@H](NC(=O)[C@H](N)c3ccc(O)cc3)[C@H]2SC1 [CEFADROXIL] | 0.046
Oc1cccc(O)c1 [RESORCINOL] | 0.1269
C[C@@H](O[C@H]1OCCN(Cc2n[nH]c(=O)[nH]2)[C@H]1c1ccc(F)cc1)c1cc(C(F)(F)F)cc(C(F)(F)F)c1 [APREPITANT] | -0.045
CC(Cc1ccc(O)cc1)NCC(O)c1cc(O)cc(O)c1 (configuration not stated) [FENOTEROL] | -0.1459
CC(N)CCCC(C)(C)O (configuration not stated) [HEPTAMINOL] | 0.1609
CCC(CC)COC(=O)[C@H](C)N[P@](=O)(OC[C@H]1O[C@@](C#N)(c2ccc3c(N)ncnn23)[C@H](O)[C@@H]1O)Oc1ccccc1 | 0.9631
Cc1ccccc1-n1c(CF)nc2ccc(N)cc2c1=O [AFLOQUALONE] | 0.1208
COc1nccnc1NS(=O)(=O)c1ccc(N)cc1 | 0.2416
CC(=O)c1c(C)c2cnc(Nc3ccc(N4CCNCC4)cn3)nc2n(C2CCCC2)c1=O [PALBOCICLIB] | 0.007482
CC(C)OC(=O)C(C)(C)Oc1ccc(C(=O)c2ccc(Cl)cc2)cc1 [FENOFIBRATE] | 0.1371
OCCOc1ccc(/C(=C(/CCCl)c2ccccc2)c2ccccc2)cc1 [OSPEMIFENE] | 0.1219
Cc1ccc(NC(=O)C2(c3ccc4c(c3)OC(F)(F)O4)CC2)nc1-c1cccc(C(=O)O)c1 [LUMACAFTOR] | 0.04797
CO[C@@]1(NC(=O)C2SC(=C(C(N)=O)C(=O)O)S2)C(=O)N2C(C(=O)O)=C(CSc3nnnn3C)CS[C@@H]21 (some centres not stated) [CEFOTETAN] | 0.1396
COc1cc([C@@H]2c3cc4c(cc3[C@@H](O[C@@H]3O[C@@H]5CO[C@@H](C)O[C@H]5[C@H](O)[C@H]3O)[C@H]3COC(=O)[C@H]23)OCO4)cc(OC)c1OP(=O)(O)O [ETOPOSIDE PHOSPHATE] | 0.05858
NC(=O)CC[C@H](N)C(=O)O [GLUTAMINE] | 0.1913
O=S(=O)(O)Oc1ccc(C(c2ccc(OS(=O)(=O)O)cc2)c2ccccn2)cc1 [PICOSULFURIC ACID] | 0.001463
O=C(O[C@H]1C[N+]2(CCCOc3ccccc3)CCC1CC2)C(O)(c1cccs1)c1cccs1 | 0.1761
CCOC(=O)N1CCC(=C2c3ccc(Cl)cc3CCc3cccnc32)CC1 [LORATADINE] | 0.1919
CC(C)Cc1ccc(C(C)C(=O)NO)cc1 (configuration not stated) [IBUPROXAM] | 0.1712
C[C@H](O)[C@H](O)[C@H]1CNc2nc(N)[nH]c(=O)c2N1 [SAPROPTERIN] | 0.04545

5 compounds drawn at random from those above:
SMILES | Hit score
C[C@@H](O[C@H]1OCCN(Cc2n[nH]c(=O)[nH]2)[C@H]1c1ccc(F)cc1)c1cc(C(F)(F)F)cc(C(F)(F)F)c1 [APREPITANT] | -0.045
CCOC(=O)N1CCC(=C2c3ccc(Cl)cc3CCc3cccnc32)CC1 [LORATADINE] | 0.1919
Cc1cn(-c2cc(NC(=O)c3ccc(C)c(Nc4nccc(-c5cccnc5)n4)c3)cc(C(F)(F)F)c2)cn1 [NILOTINIB] | 0.4816
NC(=O)CC[C@H](N)C(=O)O [GLUTAMINE] | 0.1913
C[C@H](O)[C@H](O)[C@H]1CNc2nc(N)[nH]c(=O)c2N1 [SAPROPTERIN] | 0.04545
